The values below come from paper PMC7929561.

No constants are given. Whether binding was seen depends on the method and setting. In cells and extracts the contact can be indirect. These calls come from enrichment with a bait or labelling near it, and not all partners need be listed.

In this test the target is GFP-tagged, full-length Dystroglycan (Dg::GFP) (Drosophila melanogaster). Kind of test: affinity purification with mass spectrometry; Dg::GFP immunoprecipitated with GFP-Trap beads (anti-GFP) from lysates of adult fly heads in RIPA buffer (50 mM Tris-HCl pH 7.5, 125 mM NaCl, 0.5% NP40, 0.25% Na-deoxycholate); SDS-PAGE, in-gel Lys-C digestion, LC-MS/MS; proteins enriched at least twofold over control in two biological replicates taken as Dg interactors.

B1: Vimar (protein, UniProt A1Z6S7 1-635)
chain: MATAEIDDLIEKLKTTSVSPANTTNLLCEISATKDPKLFDKHELAECFLGLTKCDDTNVRKEAAKCIAEITKSEVQRKKFTKRNIIAAFLECLRQVPTSDGSMELPIQICRALGNICYLNDEARDLILELEGDAVLLRLLDITTIEDVANAAQFIKVRGGLLSNYLLGGEGLAKRAMELGVMKKLQGIIDIGASNVEQHEDLLLNTLPLLSILTENVSDLNFDSSLNIQLSRILAASTNPDLAEMCLELLHYQAESDEVKLILAKDGLCETIYNLLEKYKTLASTSEARALMKLACELIVLILTGDDSMHYLYTTPLLKNMVDWLDSTDIDLLTTGVLALGNFARTDSHCIYFVEQQTMNKLLEVLAKNNGVKDDVRLQHALLSALRNLVIPKPNKNAVIQAGLVQTILPMLEIHQPPVVFKLLGTLRMTVDGQEKLALELLKNKTLIEQLVHWSKSSDYAGVTGESLRLMAWLIKHAYLSKIAYALPRKGDAPAEQIADKIPLTQDYDRSSLSEFLANEGTVEAMVSMLTAQHLVMQNEALIALCILSVVYLSQPSEAAQAQLLQDELVKCEVGKKLAELISKSSDTMTKEIVENLQNCVNLLKSSEQLVAHLEQHNINELLKSIPILTEYCTL
Consider B1, for which the binding entry was “binds”.

B2: Kibra (protein, UniProt Q9VFG8 1-1288)
chain: MPNLQQTASQSQHHLHPHHLRPQQQQQQHHHHHQQQQQQQHTHHQQQQQHHSDFPLPDGWDIAKDFDGKTYYIDHINKKTTWLDPRDCYTKPQTFEDCVGDELPMGWEESYDPNIGPYYINHLAQSTQLEDPRQEWKTVQEQMLSDYLSAAQDQLENKREMFDVKQQRLLWAQEEYNHLKLAASRSSLCSSSSSMSRHDPELLRADLMLARERVHQLKQELTHITNDISYTERGMNTLYSVGEKINARENGCYDIAEVHAIREEMLKVHKSLVSGEKVREELMRSLVQIKNELGRQQISEENSDLASPFDRVCVASQTDLCGSSGENLNGGARFAEMAKTKWQYAEWRKHIKKLQQQLADHVERIEPGQLESDKDRILLIQEKEKLLNDLNSISLKSRSEEEKRVIHQTRHKLEEDLKEAYEANNTCVANRLRFHEEKQLLLDKLQEALKSTKLLEERLKSFSSESTFSISSGSSLGSLSTASSKSALSFTDIYIDPFAVDSPIDVVDLRRRSQRLFQQHQQQRLHPVHPVLQQQQSAEVTLSPRSSLSMETPPASPMKYNAGADQTPQALKEEPTYANALPAPPAYTAPPPVPISGVRARPYDLDSTVLDCMMLEAKLQKLNMGTPLNLAVAPLSPISEKPSLLDLPQEMLSRSSSTSNTRSVSAAVSNESVAGDSGVFEASRAHLPRKELAQVQIGLKYLKQEGVLVVSLERANNLLALWTASADNSQVYLRAALLPNSLTSIRTKALGDFQKPVFNDTFAVPITLDKLLTKSLQVTVVTMTGQKEEIIGTVQISMAEFNPEDSTLKWYNVLSSKFIPSFESLDIPSTSAAAAAAAVAASNAPNPGNNREESSDESTITSSQTSTLTRNQAPCMELQEQMAAELLGLGPLNEPECSDDDDDDEEEELDDKQLVSDVGLMNSSSMLHAYLQNMKQEFADKETNTDRAYLPEKSRGQSQLMDDRPVKRSQTFTPSEAFSKNRYNCRLNRSDSDSAMHCGVAPHTFQRGAAERRSLRFHSKAPKSVTKLHHTHIPRTSLDLELDLQAQHSKLYFLNDQIAKLQNLKEVLQKACENKDPLVAAWAIENEEFQRLVARADPAKCPEERQLQKLLMKTAKEIHKLRKTKVPKGCPDLVSFKEKITFFTRKGLSVPELPSEFTLPEANPIEEEEEEEDENEFYNSAETAIAINTALVASSNRNKNLSEHPHRATSGAVPKIPAPVVTPAATPAATPAATPAATSAATPAATPVVSPAAQPDAKPADAPIPVASNDAEQQRFDYVVDRNYGVEV
Consider B2, for which the binding result is “binds”.
